From patent US10519147B2 (Merck Sharp & Dohme Corp., priority 2015, dated 2019)
At least one structure is not confirmed: it was looked up by name or label, or the drawing left a doubt. Some results were stated once for a whole list of compounds, not compound by compound.

Sequences of proteins named here, by UniProt entry; tags and fusion partners are left off.
UniProt Q14524, whole entry: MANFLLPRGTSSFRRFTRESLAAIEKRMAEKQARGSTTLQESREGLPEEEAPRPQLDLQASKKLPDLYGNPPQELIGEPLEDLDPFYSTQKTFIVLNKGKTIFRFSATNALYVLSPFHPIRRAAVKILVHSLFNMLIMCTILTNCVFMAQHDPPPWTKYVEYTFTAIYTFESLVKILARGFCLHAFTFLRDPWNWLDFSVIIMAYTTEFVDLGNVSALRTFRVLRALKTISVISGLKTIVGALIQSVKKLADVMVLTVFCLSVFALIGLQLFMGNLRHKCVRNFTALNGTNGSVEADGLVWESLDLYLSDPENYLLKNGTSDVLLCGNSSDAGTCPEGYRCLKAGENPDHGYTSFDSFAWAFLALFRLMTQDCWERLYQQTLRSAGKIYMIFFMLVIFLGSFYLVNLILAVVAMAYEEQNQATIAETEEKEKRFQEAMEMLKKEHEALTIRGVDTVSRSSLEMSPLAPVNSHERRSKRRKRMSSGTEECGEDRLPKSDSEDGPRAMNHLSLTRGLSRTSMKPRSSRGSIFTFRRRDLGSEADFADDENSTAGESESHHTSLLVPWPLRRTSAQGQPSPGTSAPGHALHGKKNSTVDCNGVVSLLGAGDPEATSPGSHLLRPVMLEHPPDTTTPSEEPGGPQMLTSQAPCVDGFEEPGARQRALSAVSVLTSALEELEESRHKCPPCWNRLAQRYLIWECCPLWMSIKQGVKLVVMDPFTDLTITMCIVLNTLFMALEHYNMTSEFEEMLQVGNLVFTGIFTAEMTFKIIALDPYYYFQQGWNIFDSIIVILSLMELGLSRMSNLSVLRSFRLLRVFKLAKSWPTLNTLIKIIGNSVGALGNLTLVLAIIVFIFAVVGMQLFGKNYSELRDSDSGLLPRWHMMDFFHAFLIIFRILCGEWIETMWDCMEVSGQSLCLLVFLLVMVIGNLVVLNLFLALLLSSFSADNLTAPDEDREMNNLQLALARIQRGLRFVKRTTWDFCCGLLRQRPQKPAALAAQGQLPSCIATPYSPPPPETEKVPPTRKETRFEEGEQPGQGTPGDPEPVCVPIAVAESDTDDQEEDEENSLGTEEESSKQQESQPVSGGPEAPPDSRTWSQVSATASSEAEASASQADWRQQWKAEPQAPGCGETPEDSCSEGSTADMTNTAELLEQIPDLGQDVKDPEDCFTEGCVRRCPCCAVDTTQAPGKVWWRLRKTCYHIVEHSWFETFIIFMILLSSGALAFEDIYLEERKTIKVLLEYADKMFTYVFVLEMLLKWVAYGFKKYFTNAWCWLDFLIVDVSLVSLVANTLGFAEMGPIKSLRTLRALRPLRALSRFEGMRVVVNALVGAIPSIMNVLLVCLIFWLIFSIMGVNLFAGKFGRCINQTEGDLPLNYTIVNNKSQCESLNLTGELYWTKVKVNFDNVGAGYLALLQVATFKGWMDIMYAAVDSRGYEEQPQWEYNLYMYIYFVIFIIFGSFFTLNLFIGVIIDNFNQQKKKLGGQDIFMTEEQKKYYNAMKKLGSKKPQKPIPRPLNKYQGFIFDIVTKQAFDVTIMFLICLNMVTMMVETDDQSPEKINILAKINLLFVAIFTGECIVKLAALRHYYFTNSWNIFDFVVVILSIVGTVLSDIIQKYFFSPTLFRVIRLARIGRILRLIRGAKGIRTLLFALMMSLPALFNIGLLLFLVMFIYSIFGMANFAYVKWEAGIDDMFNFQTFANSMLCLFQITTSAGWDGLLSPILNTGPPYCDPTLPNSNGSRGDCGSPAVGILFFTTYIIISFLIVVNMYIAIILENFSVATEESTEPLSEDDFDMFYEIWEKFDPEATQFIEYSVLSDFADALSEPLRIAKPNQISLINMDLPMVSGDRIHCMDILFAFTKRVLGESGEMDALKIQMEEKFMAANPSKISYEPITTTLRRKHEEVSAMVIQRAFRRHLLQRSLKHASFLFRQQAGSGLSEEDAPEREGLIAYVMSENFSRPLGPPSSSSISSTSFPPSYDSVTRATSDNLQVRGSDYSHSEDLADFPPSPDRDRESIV

target: T1, human Nav1.5 (Homo sapiens, UniProt Q14524); assay: IonWorks Quattro automated patch-clamp, Nav1.5 (selectivity against Nav1.7); format: cell-based; conditions: IonWorks measurement, HEK 293 cells, inactivated state block
T1 construct: expressed in transfected cells; host or cells: HEK 293
Experimental: Compounds were tested on human Nav1.7 and Nav1.5 channels stably expressed in HEK 293 cells. […] Cells were sealed on a planar substrate using the Population Patch […] (PPC) technology. Electrical access was obtained using both nystatin and amphotericin. A double-pulse protocol was used for the determination of IC50 values for inactivated state block. Nav1.7 and Nav1.5 expressing cells were voltage clamped at −100 mV and −110 mV, respectively. A depolarizing prepulse to −10 mV (Nav1.7) or −30 mV (Nav1.5) for 1000 ms followed by a 10 ms repolarization to −100 mV (Nav1.7) or −110 mV (Nav1.5) was given to generate fractional channel inactivation of 50%, followed by a 10 ms test pulse to −10 mV (Nav1.7) or −30 mV (Nav1.5) to measure peak current in control conditions and after compound addition. The following recording solutions were used (mM). External: 150 NaCl, 2 CaCl2, 5 KCl, 1 Mg Cl2, 10 HEPES, 12 Dextrose; internal: 120 CsF, 30 CsCl, 10 EGTA, 5 HEPES, 5 NaF, 2 MgCl2.
For all electrophysiology experiments, offline analysis was used to determine percent inhibition as a function of drug concentration. IC50 values were determined by fitting to the Hill equation.

SMILES	ratio of Nav 1.7 potency:Nav 1.5 potency
C[C@H](CCN)NCCCCNc1cc(F)c(S(=O)(=O)Nc2nccs2)cc1Cl [Ex 16-26, 4-[(4-{[(1R)-3-amino-1-methylpropyl]amino}butyl)amino]-5-chloro-2-fluoro-N-1,3-thiazol-2-ylbenzene-sulfonamide]	> 1180
C[C@H](CCN)NCCCCNc1cc(F)c(S(=O)(=O)Nc2ncns2)cc1Cl [Ex 16-29, 4-[(4-{[(1R)-3-amino-1-methylpropyl]amino}butyl)-amino]-5-chloro-2-fluoro-N-1,2,4-thiadiazol-5-yl-benzenesulfonamide]	> 589
NCCNCCCCNc1cc(F)c(S(=O)(=O)Nc2ncns2)cc1Cl [Ex 16-33, 4-({4-[(2-aminoethyl)-amino]butyl}amino)-5-chloro-2-fluoro-N-1,2,4-thiadiazol-5-ylbenzene-sulfonamide]	> 2750
C[C@@H](N)CCNCCCCNc1cc(F)c(S(=O)(=O)Nc2nccs2)cc1Cl [Ex 16-34, 4-[(4-{[(3R)-3-aminobutyl]-amino}butyl)amino]-5-chloro-2-fluoro-N-1,3-thiazol-2-ylbenzene-sulfonamide]	> 1140
NCCCNCCCCNc1cc(F)c(S(=O)(=O)Nc2ncc(F)s2)cc1Cl [Ex 16-35, 4-({4[(3-aminopropyl)amino]-butyl}amino)-5-chloro-2-fluoro-N-(5-fluoro-1,3-thiazol-2-yl)benzene-sulfonamide]	> 2360
O=S(=O)(Nc1ncc(F)s1)c1cc(Br)c(NCCCCN[C@@H]2CCNC2)cc1F [Ex 16-36, 5-bromo-2-fluoro-N-(5-fluoro-1,3-thiazol-2-yl)-4-({4-[(3R)-pyrrolidin-3-yl-amino]butyl}amino) benzene-sulfonamide]	> 2200
O=S(=O)(Nc1nccs1)c1cc(Br)c(NCCCCN[C@@H]2CCNC2)cc1F [Ex 16-37, 5-bromo-2-fluoro-4-({4-[(3R)-pyrrolidin-3-ylamino]-butyl}amino)-N-1,3-thiazol-2-ylbenzenesulfonamide]	> 1740
O=S(=O)(Nc1nccs1)c1cc(Cl)c(NCCCCN[C@H]2CCCCNC2)cc1F [Ex 16-41, (S)-4-{[4-(azepan-3-ylamino)-butyl]amino}-5-chloro-2-fluoro-N-1,3-thiazol-2-yl-benzenesulfonamide]	> 2360
CNCCNCCCCNc1cc(F)c(S(=O)(=O)Nc2ncc(Cl)s2)cc1Cl [Ex 16-49, 5-chloro-N-(5-chloro-1,3-thiazol-2-yl)-2-fluoro-4-[(4-{[2-(methylamino)ethyl]-amino}butyl)amino] benzene-sulfonamide]	> 2360
CNCCNCCCCNc1cc(F)c(S(=O)(=O)Nc2nccs2)cc1Br [Ex 16-50, 5-bromo-2-fluoro-4-[(4-{[2-(methylamino)ethyl]amino}-butyl)amino]-N-1,3-thiazol-2-ylbenzenesulfonamide]	> 3000
CNCCCNCCCCNc1cc(F)c(S(=O)(=O)Nc2nccs2)cc1Br [Ex 16-55, 5-bromo-2-fluoro-4-[(4-{[3-(methylamino)propyl]amino}butyl)amino]-N-1,3-thiazol-2-ylbenzenesulfonamide]	> 1833
CNCCCNCCCCNc1cc(F)c(S(=O)(=O)Nc2ncc(F)s2)cc1Br [Ex 16-56, 5-bromo-2-fluoro-N-(5-fluoro-1,3-thiazol-2-yl)-4-[(4-{[3-(methylamino)-propyl]amino}butyl)amino]-benzenesulfonamide]	> 2750
O=S(=O)(Nc1ncns1)c1cc(Cl)c(NCCCCNCCCNCCF)cc1F [Ex 16-58, 5-chloro-2-fluoro-4-{[4-({3-[(2-fluoroethyl)amino]-propyl}amino)butyl]amino}-N-1,2,4-thiadiazol-5-yl-benzenesulfonamide]	> 892
C[C@H](CN)NCCCCNc1cc(F)c(S(=O)(=O)Nc2ncns2)cc1Cl [Ex 16-60, 4-[(4-{[(1R)-2-amino-1-methylethyl]amino}butyl)-amino]-5-chloro-2-fluoro-N-1,2,4-thiadiazol-5-yl-benzenesulfonamide]	> 3000
CC(C)(CN)NCCCCNc1cc(F)c(S(=O)(=O)Nc2ncc(F)s2)cc1Cl [Ex 16-61, 4-({4-[(2-amino-1,1-dimethylethyl)amino]butyl}amino)-5-chloro-2-fluoro-N-(5-fluoro-1,3-thiazol-2-yl)benzenesulfonamide]	> 1570
NC1(CNCCCCNc2cc(F)c(S(=O)(=O)Nc3ncc(F)s3)cc2Cl)CC1 [Ex 16-63, 4-[(4-{[(1-aminocyclopropyl)methyl]amino}butyl)amino]-5-chloro-2-fluoro-N-(5-fluoro-1,3-thiazol-2-yl)benzenesulfonamide]	> 589
CN[C@H](C)CNCCCCNc1cc(F)c(S(=O)(=O)Nc2ncc(F)s2)cc1Cl [Ex 16-65, 5-chloro-2-fluoro-N-(5-fluoro-1,3-thiazol-2-yl)-4-[(4-{[(2R)-2-(methylamino)propyl]amino}butyl)amino] benzenesulfonamide]	> 1180
C[C@@H](CN)NCCCCNc1cc(F)c(S(=O)(=O)Nc2ncc(F)s2)cc1Cl [Ex 16-66, 4-[(4-{[(1S)-2-amino-1-methylethyl]amino}butyl)amino]-5-chloro-2-fluoro-N-(5-fluoro-1,3-thiazol-2-yl)benzenesulfonamide]	> 2060
C[C@@H](CN)NCCCCNc1cc(F)c(S(=O)(=O)Nc2ncns2)cc1Cl [Ex 16-67, 4-[(4-{[(1S)-2-amino-1-methylethyl]amino}butyl)amino]-5-chloro-2-fluoro-N-1,2,4-thiadiazol-5-ylbenzenesulfonamide]	> 2060
NC1(CNCCCCNc2cc(F)c(S(=O)(=O)Nc3ncc(F)s3)cc2Cl)CCC1 [Ex 16-69, 4-[(4-{[(1-aminocyclobutyl)methyl]amino}butyl)amino]-5-chloro-2-fluoro-N-(5-fluoro-1,3-thiazol-2-yl)benzenesulfonamide]	> 1830
N[C@H]1CCC[C@@H]1NCCCCNc1cc(F)c(S(=O)(=O)Nc2nccs2)cc1Cl [Ex 16-72, 4-[(4-{[(1S,2S)-2-aminocyclopentyl]amino}butyl)amino]-5-chloro-2-fluoro-N-1,3-thiazol-2-ylbenzenesulfonamide]	> 3000
O=S(=O)(Nc1ncc(F)s1)c1cc(Cl)c(NCCCCNC[C@H]2CCN2)cc1F [Ex 16-73, 4-[(4-{[(2R)-azetidin-2-ylmethyl]amino}butyl)amino]-5-chloro-2-fluoro-N-(5-fluoro-1,3-thiazol-2-yl)benzenesulfonamide]	> 1740
C[C@H](CN)NCCCCNc1cc(F)c(S(=O)(=O)Nc2ncns2)cc1Br [Ex 16-78, 4-[(4-{[(1R)-2-amino-1-methylethyl]amino}butyl)amino]-5-bromo-2-fluoro-N-1,2,4-thiadiazol-5-ylbenzenesulfonamide]	> 2750
NC1(CNCCCCNc2cc(F)c(S(=O)(=O)Nc3ncns3)cc2Br)CC1 [Ex 16-89, 4-[4-[(1-aminocyclopropyl)methylamino]butylamino]-5-bromo-2-fluoro-N-(1,2,4-thiadiazol-5-yl)benzenesulfonamide]	> 2750
CNCCNCCCCNc1cc(F)c(S(=O)(=O)Nc2ncns2)cc1Br [Ex 16-90, 5-bromo-2-fluoro-4-[4-[2-(methylamino)ethylamino]butylamino]-N-(1,2,4-thiadiazol-5-yl)benzenesulfonamide]	> 6470
CNCCCNCCCCNc1cc(F)c(S(=O)(=O)Nc2ncns2)cc1Br [Ex 16-91, 5-bromo-2-fluoro-4-[4-[3-(methylamino)propylamino]butylamino]-N-(1,2,4-thiadiazol-5-yl)benzenesulfonamide]	> 2360
CC1(NCCCCNc2cc(F)c(S(=O)(=O)Nc3ncns3)cc2Br)CCNC1 (centres unmarked) [Ex 16-96, 5-bromo-2-fluoro-4-[4-[(3-methylpyrrolidin-3-yl)amino]butylamino]-N-(1,2,4-thiadiazol-5-yl)benzenesulfonamide]	> 2200
NCCCNCCCCNc1cc(F)c(S(=O)(=O)Nc2ncns2)cc1Br [Ex 16-97, 4-[4-(3-aminopropylamino)butylamino]-5-bromo-2-fluoro-N-(1,2,4-thiadiazol-5-yl)benzenesulfonamide]	> 1830
O=S(=O)(Nc1ncns1)c1cc(Br)c(NCCCCN[C@H]2CCNC2)cc1F [Ex 16-100, (S)-5-bromo-2-fluoro-4-((4-(pyrrolidin-3-ylamino)butyl)amino)-N-(1,2,4-thiadiazol-5-yl)benzenesulfonamide]	> 2200
